# Laboratory results as given in patent publication US20170101521A1, “THERMAL BASE GENERATOR, THERMOSETTING RESIN COMPOSITION, CURED FILM, CURED FILM MANUFACTURING METHOD, AND SEMICONDUCTOR DEVICE” (FUJIFILM Corporation, priority 2014, published 2017).
# Assay: Base generation temperature by differential scanning calorimetry
# Type: physicochemical
# Conditions: DSC, heated to 250° C. at 5° C./min in pressure-resistant capsule; peak temperature of lowest exothermic peak
# Procedure: The base generation temperature may be measured, for example, by heating a compound to 250° C. at a rate of 5° C./minute in a pressure-resistant capsule, reading a peak temperature of an exothermic peak having the lowest temperature, and taking the peak temperature as a base generation temperature, using differential scanning calorimetry.
# Using differential scanning calorimetry (Q2000, manufactured by TA), (A) a thermal base generator was heated to 250° C. at 5° C./min in a pressure-resistant capsule. The peak temperature of an exothermic peak having the lowest temperature was read to measure such a peak temperature as a base generation temperature.
smiles,measurement,value
C1CNC2=[N+](C1)CCC2.O=C([O-])C(=O)O [A-35],Base generation temperature,80 °C
